According to paper PMC5343593:
These are yes or no findings as the source states them, for the method shown. Binding seen in cells or lysates may run through a third protein. A result given as binding can be weak or reduced; the word gives no strength.

Chains of the proteins cited; added tags and fusions are not shown. Lines headed by an entry give the natural chain unless they say otherwise; changes in a name come on top.
UniProt Q9Y4E8: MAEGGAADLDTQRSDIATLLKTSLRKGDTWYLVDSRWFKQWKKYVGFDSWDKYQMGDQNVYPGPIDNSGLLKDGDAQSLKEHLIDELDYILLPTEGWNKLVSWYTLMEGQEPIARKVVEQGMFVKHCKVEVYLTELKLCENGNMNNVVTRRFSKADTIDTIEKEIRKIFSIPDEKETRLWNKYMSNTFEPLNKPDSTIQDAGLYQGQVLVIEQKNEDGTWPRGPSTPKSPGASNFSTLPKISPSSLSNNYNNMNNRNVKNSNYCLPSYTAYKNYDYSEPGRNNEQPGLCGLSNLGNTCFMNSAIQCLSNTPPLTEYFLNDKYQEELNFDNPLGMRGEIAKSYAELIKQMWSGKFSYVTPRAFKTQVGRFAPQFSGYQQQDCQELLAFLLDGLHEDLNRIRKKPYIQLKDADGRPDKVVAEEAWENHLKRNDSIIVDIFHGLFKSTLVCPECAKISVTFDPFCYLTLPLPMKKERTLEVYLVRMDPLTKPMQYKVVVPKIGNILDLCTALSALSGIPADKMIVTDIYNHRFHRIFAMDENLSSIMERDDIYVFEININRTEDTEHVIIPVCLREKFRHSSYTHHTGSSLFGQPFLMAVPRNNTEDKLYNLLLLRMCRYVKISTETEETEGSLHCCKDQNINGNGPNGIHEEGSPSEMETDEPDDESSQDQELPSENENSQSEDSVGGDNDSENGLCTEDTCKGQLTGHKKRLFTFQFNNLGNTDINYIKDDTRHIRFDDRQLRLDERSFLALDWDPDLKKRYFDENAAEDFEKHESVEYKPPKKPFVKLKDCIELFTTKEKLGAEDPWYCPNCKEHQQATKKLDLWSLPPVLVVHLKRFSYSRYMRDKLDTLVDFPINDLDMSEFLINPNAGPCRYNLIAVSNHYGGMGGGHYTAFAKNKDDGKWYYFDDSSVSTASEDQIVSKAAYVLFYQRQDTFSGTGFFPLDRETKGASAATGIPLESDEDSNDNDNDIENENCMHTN
UniProt Q63HN8: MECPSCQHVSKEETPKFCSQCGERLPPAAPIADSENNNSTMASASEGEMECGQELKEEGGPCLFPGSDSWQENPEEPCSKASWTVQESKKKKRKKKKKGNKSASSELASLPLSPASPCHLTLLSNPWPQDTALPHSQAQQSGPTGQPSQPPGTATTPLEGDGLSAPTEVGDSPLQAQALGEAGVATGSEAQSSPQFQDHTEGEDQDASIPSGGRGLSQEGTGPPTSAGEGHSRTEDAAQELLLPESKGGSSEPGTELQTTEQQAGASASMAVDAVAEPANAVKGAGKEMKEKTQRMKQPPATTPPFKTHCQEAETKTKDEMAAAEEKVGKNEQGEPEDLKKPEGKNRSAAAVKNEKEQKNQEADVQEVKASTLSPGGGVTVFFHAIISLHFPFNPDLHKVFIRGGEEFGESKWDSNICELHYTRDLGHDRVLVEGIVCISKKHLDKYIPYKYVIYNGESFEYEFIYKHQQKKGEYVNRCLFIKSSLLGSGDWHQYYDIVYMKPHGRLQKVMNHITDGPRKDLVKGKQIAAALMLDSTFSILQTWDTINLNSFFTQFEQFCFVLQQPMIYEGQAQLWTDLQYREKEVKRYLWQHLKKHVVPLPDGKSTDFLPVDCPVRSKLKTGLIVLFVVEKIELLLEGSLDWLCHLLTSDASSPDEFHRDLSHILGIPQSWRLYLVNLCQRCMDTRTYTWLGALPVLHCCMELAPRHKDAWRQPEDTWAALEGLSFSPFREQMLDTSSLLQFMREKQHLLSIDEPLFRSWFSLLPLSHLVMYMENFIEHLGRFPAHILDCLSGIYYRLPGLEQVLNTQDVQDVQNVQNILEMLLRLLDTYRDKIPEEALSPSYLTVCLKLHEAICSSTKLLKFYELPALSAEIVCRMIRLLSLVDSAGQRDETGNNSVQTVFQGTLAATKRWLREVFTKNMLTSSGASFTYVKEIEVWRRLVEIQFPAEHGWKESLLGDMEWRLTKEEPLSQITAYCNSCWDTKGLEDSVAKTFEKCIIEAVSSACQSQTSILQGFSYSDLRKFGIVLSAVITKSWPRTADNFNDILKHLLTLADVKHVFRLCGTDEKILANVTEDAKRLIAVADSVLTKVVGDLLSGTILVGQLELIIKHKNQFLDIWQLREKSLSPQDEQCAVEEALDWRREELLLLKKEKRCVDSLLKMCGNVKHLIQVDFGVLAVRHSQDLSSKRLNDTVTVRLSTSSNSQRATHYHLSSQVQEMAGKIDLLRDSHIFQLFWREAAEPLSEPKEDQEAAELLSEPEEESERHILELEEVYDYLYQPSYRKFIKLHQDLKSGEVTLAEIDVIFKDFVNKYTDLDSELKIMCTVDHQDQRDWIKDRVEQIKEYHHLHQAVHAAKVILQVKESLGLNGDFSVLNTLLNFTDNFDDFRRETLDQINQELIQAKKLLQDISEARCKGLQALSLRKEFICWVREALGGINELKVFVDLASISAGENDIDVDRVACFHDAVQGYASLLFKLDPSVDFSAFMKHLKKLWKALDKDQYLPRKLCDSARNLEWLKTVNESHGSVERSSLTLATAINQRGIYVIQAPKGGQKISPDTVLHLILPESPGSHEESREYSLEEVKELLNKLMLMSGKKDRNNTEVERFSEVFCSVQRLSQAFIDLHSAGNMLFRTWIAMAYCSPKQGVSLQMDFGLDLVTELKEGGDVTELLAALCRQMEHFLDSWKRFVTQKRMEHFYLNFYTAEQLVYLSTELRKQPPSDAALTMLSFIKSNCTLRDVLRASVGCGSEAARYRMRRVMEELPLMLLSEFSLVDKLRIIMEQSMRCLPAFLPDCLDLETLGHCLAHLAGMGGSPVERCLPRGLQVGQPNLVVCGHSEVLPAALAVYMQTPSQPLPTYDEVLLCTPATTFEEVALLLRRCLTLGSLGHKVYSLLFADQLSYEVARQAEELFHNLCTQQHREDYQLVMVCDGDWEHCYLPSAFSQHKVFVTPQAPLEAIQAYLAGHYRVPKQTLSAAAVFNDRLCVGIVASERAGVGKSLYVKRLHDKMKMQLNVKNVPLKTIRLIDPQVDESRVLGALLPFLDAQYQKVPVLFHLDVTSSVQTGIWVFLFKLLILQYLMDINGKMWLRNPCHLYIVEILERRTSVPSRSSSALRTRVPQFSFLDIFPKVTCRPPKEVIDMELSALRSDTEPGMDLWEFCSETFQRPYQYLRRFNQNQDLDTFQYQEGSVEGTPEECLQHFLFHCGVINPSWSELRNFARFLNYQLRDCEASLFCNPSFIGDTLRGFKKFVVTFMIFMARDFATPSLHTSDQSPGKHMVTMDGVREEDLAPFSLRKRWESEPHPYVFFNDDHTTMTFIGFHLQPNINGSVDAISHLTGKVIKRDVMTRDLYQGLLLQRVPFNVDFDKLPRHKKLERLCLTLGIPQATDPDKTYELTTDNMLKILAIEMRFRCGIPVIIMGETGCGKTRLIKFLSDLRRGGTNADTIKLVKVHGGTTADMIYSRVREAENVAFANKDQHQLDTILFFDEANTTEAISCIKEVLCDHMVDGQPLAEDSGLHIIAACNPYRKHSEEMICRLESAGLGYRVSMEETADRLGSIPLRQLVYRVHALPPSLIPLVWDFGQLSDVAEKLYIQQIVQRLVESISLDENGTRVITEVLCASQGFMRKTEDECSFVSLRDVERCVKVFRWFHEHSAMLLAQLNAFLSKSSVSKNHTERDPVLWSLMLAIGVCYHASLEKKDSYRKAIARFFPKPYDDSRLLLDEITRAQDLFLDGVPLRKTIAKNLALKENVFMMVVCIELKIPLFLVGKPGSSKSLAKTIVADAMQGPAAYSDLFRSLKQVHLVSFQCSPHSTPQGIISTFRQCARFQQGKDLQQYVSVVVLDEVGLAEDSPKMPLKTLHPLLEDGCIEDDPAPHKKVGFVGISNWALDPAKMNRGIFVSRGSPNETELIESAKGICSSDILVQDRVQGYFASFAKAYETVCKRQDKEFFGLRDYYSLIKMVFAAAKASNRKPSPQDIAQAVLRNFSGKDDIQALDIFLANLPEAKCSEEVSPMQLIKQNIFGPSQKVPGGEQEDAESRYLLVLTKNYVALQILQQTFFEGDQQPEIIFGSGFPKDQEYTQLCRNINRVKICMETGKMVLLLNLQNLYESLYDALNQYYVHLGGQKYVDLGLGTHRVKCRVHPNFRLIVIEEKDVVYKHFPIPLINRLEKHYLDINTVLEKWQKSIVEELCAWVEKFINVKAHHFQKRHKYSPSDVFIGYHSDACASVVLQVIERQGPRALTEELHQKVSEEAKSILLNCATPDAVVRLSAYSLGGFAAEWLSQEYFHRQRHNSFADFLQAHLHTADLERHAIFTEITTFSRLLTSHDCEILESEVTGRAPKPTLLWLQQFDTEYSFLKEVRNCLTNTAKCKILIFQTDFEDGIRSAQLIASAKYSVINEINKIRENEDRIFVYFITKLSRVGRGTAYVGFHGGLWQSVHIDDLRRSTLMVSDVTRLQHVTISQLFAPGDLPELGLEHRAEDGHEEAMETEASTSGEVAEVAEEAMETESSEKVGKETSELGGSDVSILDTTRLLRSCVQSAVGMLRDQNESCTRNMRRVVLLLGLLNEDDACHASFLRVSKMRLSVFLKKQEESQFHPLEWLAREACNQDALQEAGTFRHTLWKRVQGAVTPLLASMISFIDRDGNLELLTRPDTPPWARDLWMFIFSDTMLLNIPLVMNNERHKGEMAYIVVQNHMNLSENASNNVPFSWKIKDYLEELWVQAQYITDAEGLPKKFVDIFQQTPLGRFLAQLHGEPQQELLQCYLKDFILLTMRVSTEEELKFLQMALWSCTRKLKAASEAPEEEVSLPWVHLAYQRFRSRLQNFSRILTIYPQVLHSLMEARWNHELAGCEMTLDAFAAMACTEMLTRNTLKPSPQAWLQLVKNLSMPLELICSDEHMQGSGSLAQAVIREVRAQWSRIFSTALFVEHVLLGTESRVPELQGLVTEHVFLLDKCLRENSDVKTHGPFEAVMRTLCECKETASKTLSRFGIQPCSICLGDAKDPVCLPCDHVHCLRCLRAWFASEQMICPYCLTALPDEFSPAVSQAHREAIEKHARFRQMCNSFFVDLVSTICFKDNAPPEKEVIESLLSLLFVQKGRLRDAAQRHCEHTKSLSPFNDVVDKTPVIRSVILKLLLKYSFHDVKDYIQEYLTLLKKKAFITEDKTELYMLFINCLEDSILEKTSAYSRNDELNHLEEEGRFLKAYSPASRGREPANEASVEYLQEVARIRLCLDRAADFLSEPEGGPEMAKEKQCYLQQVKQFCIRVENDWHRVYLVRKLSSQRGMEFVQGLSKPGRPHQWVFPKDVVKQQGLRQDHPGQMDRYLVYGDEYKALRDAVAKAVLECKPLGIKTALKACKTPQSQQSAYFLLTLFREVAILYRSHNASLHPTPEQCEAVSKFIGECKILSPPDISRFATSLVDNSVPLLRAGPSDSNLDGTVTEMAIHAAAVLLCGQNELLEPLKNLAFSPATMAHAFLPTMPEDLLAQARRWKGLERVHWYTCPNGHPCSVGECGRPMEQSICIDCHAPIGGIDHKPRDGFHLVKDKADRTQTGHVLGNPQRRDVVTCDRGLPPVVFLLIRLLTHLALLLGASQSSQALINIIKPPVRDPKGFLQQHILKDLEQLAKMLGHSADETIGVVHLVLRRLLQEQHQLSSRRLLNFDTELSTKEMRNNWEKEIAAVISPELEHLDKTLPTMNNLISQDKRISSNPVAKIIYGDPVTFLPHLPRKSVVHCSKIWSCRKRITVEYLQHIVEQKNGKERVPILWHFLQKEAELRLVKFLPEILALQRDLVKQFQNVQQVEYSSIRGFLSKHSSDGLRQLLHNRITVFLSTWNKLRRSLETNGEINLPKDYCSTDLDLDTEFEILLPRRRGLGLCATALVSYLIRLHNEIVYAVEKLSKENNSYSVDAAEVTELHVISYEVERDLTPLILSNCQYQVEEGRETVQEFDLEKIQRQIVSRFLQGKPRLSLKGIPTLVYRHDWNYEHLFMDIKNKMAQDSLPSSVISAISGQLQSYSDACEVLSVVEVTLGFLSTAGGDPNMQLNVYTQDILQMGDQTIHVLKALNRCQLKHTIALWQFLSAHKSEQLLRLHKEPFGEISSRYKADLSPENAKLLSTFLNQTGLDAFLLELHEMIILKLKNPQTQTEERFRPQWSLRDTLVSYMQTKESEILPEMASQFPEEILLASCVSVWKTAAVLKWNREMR

Molecular target: USP15Lmt-Myc (enzymatic mutant of USP15L with a Myc epitope tag at the C-terminus) (human) (UniProt Q9Y4E8)
Assay: co-IP; Myc-tagged USP15L or mutant transiently expressed in HEK293T; digitonin HEPES buffer; anti-Myc antibody and protein G beads; endogenous mysterin detected by immunoblot

mysterin (moyamoya steno-occlusive disease-associated AAA+ and RING finger protein), endogenous (from UniProt Q63HN8 1-5207)
binding: binds
